Experimental data published in patent publication US7601729B2, “Matrix metalloproteinase inhibitors” (Glaxo Group Limited, priority 2003, dated 2009).
Some entries share one result that the patent states for a list of compounds.

The chains behind the UniProt entries cited, without tags or fusion partners. Residues count along the entry.
UniProt P39900, 106-268: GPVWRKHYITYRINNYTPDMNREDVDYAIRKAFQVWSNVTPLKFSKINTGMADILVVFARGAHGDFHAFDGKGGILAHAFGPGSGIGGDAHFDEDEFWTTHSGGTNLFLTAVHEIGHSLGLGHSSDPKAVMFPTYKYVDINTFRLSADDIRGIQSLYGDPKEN

target: T1, MMP12 catalytic domain (residues 106-268) (Homo sapiens, UniProt P39900); experiment: MMP-12 fluorescent peptide substrate assay; type: biochemical; conditions: MMP-12 assay; 2 uM substrate, 20 nM enzyme, 120 min at ambient temperature, pH 7.5
T1 construct: MMP12 catalytic domain (residues 106-268) protein was expressed in E. coli; made in house; host or cells: E. coli

IC50, < 100 µM:
O=C(O)C(CCN1C(=O)c2ccccc2C1=O)C(O)CCc1ccc(-c2ccccc2)cc1 (stereo not drawn) [Example 1, 5-Biphenyl-4-yl-2-[2-(1,3-dioxo-1,3-dihydro-2H-isoindol-2-yl)ethyl]-3-hydroxypentanoic acid]
Cn1ccc(=O)n(CCC(C(=O)O)C(O)CCc2ccc(-c3ccccc3)cc2)c1=O (stereo not drawn) [Example 2, 5-Biphenyl-4-yl-3-hydroxy-2-[2-(3-methyl-2,6-dioxo-3,6-dihydropyrimidin-1(2H)-yl)ethyl]pentanoic acid]
Cn1c(=O)ccn(CCC(C(=O)O)C(O)CCc2ccc(-c3ccccc3)cc2)c1=O (stereo not drawn) [Example 3, 5-Biphenyl-4-yl-3-hydroxy-2-[2-(3-methyl-2,4-dioxo-3,4-dihydropyrimidin-1 (2H)-yl)ethyl]pentanoic acid]
CC(=O)c1ccc(-c2ccc(CCC(O)C(CCn3ccc(=O)n(C)c3=O)C(=O)O)cc2)cc1 (stereo not drawn) [Example 4, 5-(4′-Acetylbiphenyl-4-yl)-3-hydroxy-2-[2-(3-methyl-2,4-dioxo-3,4-dihydropyrimidin-1(2H)-yl)ethyl]pentanoic acid]
Cn1c(=O)ccn(CCC(C(=O)O)C(O)CCc2ccc(-c3cncnc3)cc2)c1=O (stereo not drawn) [Example 5, 3-Hydroxy-2-[2-(3-methyl-2,4-dioxo-3,4-dihydropyrimidin-1(2H)-yl)ethyl]-5-(4-pyrimidin-5-ylphenyl)pentanoic acid]
Cn1c(=O)ccn(CCC(C(=O)O)C(O)CCc2ccc(-c3ccc(OC(F)(F)F)cc3)cc2)c1=O (stereo not drawn) [Example 6, 3-Hydroxy-2-[2-(3-methyl-2,4-dioxo-3,4-dihydropyrimidin-1(2H)-yl)ethyl]-5-[4′-(trifluoromethoxy)biphenyl-4-yl]pentanoic acid]
O=C(O)C(CCN1C(=O)c2ccccc2C1=O)C(O)CCc1ccc(-c2cc3ccccc3o2)cc1 (stereo not drawn) [Example 7, 5-[4-(1-Benzofuran-2-yl)phenyl]-2-[2-(1,3-dioxo-1,3-dihydro-2H-isoindol-2-yl)ethyl]-3-hydroxypentanoic acid]
O=C(O)C(CCN1C(=O)c2ccccc2C1=O)C(O)CCc1ccc(-c2ccc(OC(F)(F)F)cc2)cc1 (stereo not drawn) [Example 8, 2-[2-(1,3-Doxo-1,3-dihydro-2H-isoindol-2-yl)ethyl]-3-hydroxy-5-[4′-(trifluoromethoxy)biphenyl-4-yl]pentanoic acid]
CSc1ccc(-c2ccc(CCC(O)C(CCN3C(=O)c4ccccc4C3=O)C(=O)O)cc2)cc1 (stereo not drawn) [Example 9, 2-[2-(1,3-Dioxo-1,3-dihydro-2H-isoindol-2-yl)ethyl]-3-hydroxy-5-[4′-(methylthio)biphenyl-4-yl]pentanoic acid]
N#Cc1ccc(-c2ccc(CCC(O)C(CCN3C(=O)c4ccccc4C3=O)C(=O)O)cc2)cc1 (stereo not drawn) [Example 10, 5-(4′-Cyanobiphenyl-4-yl)-2-[2-(1,3-dioxo-1,3-dihydro-2H-isoindol-2-yl)ethyl]-3-hydroxypentanoic acid]
CC(=O)c1ccc(-c2ccc(CCC(O)C(CCN3C(=O)c4ccccc4C3=O)C(=O)O)cc2)cc1 (stereo not drawn) [Example 11, 5-(4′-Acetylbiphenyl-4-yl)-2-[2-(1,3-dioxo-1,3-dihydro-2H-isoindol-2-yl)ethyl]-3-hydroxypentanoic acid]
O=C(O)C(CCN1C(=O)c2ccccc2C1=O)C(O)CCc1ccc(-c2cncnc2)cc1 (stereo not drawn) [Example 12, 2-[2-(1,3-Dioxo-1,3-dihydro-2H-isoindol-2-yl)ethyl]-3-hydroxy-5-(4-pyrimidin-5-ylphenyl)pentanoic acid]
